Laboratory results published in patent US20250353833A1, “DPP9 BINDING COMPOUNDS” (UNIVERSITEIT ANTWERPEN, priority 2022, published 2025).
For at least one compound, name, drawing or mass did not settle the structure.

Protein sequences, listed by entry. Tags and fused reporters are not part of them. Lines headed by an entry give the natural chain unless they say otherwise; changes in a name come on top.
UniProt Q86TI2: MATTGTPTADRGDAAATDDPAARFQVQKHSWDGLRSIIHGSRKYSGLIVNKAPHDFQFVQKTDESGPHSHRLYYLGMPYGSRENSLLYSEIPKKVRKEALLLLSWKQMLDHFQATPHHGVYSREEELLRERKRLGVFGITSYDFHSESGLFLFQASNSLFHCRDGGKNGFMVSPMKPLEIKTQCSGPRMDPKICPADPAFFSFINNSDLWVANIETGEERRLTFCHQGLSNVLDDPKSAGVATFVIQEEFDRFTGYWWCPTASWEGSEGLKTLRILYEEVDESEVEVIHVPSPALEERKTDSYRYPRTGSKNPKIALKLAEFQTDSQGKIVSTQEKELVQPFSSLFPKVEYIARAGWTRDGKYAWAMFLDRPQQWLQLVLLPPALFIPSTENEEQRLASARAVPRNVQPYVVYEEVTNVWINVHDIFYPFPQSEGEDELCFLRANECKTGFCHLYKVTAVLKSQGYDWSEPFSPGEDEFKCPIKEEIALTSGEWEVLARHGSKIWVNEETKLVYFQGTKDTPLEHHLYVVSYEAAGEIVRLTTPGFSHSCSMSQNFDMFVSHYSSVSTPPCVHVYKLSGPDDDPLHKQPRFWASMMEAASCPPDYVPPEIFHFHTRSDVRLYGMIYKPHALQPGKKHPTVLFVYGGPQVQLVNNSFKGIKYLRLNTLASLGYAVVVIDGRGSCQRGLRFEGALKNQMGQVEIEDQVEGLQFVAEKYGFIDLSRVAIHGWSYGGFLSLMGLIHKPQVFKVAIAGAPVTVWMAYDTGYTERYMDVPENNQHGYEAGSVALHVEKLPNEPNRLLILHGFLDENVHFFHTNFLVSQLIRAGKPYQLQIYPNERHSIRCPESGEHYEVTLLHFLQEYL

Biological target: DPP9 (Homo sapiens (Human), UniProt Q86TI2)
Assay: DPP9 enzyme inhibition, IC50 measurement (Ala-Pro-pNA release)
Type: biochemical
Details: Table 3; selectivity index, DPP8 IC50 over DPP9 IC50
Procedure: DPP4 was purified from human seminal plasma as described previously.^[3]
IC50 measurements. […] The Magellan software was used to process the data, which was then fitted using a non-linear fit model in GraFit 7. […] As a blank, the assay buffer was used instead of the enzyme. Screening measurements were carried out in duplo and IC50 values were determined in triplo with at least eight different inhibitor concentrations as described by Van Goethem et al.

CC(C)(C)NC(=O)OC12CC3CC(CC(NCC(=O)N4Cc5ccccc5C4)(C3)C1)C2 [Compound 30, 3-((2-(isoindolin-2-yl)-2-oxoethyl)amino)adamantan-1-yl butylcarbamate]
SI DPP9/8: 15.3
